The target of experiment [1] is GST-protein-fused Rho-binding domain of Rhotekin (GST-RBD) fixed on glutathione sepharose beads (UniProt Q9BST9). The experiment in a line: GST-RBD (Rhotekin) pull-down from NIH-3T3 lysate, western blot. (In general: A western blot detects proteins with antibodies after separation by electrophoresis.)
The target is the same in experiment [2]. The experiment in a line: GST-RBD (Rhotekin) pull-down from NIH-3T3 cells overexpressing wild-type and G17V RHOA together, western blot.

No constants are given. Whether binding was seen depends on the method and setting. In cells and extracts the contact can be indirect. Some binding calls cover weakened binding; strength is not graded here.

In the case of “wild-type RHOA (ras homolog family member A) protein, human (from UniProt P24406 1-193) (enzyme)”, the binding result in experiment [1] and in experiment [2] was “binds” throughout.
